From the supplement of paper PMC12823440, “Inhibitors supercharge kinase turnover through native proteolytic circuits” (Nature, 2025)
The list shows a part of the results. Hit calls seldom repeat between salt and free forms of one compound.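 In K562 cells expressing nanoluciferase-fused kinases, luminescence was recorded at 4 h intervals between 2 and 18 h, normalized as percent of control with DMSO at 100% and a positive control at 0%. A significant (2 sigma) signal drop marks a time point as decreased. The authors' rule for a hit is not shown and takes in more than the number of time points.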

By UniProt entry, the sequences of proteins in these tests, tags left out. Where a name states a change or a piece, a line headed by the entry shows the natural chain unless it says otherwise.
UniProt Q15208: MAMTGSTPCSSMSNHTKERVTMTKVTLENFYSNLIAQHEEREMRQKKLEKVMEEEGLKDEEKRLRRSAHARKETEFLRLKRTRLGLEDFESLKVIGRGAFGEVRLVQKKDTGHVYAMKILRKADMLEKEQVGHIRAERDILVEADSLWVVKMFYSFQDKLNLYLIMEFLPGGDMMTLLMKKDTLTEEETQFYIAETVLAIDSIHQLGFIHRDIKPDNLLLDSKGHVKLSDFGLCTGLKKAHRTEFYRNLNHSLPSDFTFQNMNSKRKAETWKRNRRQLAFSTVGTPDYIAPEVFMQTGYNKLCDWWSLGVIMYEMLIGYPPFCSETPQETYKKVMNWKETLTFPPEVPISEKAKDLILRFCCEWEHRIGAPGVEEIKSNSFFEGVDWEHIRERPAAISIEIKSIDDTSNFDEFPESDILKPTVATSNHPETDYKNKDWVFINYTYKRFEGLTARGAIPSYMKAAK
UniProt P42680: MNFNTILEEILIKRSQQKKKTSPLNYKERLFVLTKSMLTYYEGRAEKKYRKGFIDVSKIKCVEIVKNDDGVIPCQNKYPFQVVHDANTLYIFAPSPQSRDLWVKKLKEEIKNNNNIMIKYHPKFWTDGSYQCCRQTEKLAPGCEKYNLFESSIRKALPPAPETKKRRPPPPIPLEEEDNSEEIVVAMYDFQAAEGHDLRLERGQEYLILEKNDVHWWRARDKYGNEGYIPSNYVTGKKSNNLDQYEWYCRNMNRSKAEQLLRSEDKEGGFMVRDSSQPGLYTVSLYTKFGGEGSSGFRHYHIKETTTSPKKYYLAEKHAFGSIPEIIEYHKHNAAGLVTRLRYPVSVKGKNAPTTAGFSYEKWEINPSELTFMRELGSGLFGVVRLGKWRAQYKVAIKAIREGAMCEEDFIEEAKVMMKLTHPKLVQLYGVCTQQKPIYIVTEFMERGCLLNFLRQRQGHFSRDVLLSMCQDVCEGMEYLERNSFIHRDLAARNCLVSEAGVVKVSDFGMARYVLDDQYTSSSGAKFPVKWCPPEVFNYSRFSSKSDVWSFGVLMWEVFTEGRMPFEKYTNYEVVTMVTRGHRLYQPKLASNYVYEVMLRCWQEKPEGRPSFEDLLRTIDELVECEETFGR
UniProt P29597: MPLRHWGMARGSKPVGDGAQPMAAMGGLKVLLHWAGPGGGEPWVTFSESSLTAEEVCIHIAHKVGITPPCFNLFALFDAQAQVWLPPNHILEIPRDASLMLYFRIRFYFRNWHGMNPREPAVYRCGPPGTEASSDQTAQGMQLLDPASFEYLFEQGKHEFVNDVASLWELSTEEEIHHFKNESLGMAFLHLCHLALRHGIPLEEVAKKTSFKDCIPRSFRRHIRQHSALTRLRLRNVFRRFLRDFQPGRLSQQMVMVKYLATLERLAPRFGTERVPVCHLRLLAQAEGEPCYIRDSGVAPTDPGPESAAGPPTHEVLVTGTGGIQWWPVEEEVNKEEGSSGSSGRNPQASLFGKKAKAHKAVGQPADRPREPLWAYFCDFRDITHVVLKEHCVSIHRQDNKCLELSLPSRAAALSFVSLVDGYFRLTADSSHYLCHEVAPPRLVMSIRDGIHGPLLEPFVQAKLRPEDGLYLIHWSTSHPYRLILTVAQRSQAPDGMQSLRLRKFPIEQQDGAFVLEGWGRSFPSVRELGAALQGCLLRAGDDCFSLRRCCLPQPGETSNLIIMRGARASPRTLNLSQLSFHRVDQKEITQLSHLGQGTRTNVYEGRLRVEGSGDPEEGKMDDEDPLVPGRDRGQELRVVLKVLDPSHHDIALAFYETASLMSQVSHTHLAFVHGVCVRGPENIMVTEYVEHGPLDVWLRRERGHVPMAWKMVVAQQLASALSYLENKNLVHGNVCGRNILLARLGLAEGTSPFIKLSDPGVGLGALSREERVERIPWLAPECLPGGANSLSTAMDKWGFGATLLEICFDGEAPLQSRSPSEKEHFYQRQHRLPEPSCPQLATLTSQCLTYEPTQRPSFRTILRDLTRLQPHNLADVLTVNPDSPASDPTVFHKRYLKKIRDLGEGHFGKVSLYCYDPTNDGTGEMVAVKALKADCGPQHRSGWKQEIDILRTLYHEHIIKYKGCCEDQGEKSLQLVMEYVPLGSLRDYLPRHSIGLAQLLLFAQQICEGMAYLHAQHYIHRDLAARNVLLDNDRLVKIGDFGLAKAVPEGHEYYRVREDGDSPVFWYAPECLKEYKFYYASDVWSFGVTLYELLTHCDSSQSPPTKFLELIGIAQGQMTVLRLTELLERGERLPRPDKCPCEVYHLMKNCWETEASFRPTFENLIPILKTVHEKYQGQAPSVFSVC
UniProt Q6PHR2: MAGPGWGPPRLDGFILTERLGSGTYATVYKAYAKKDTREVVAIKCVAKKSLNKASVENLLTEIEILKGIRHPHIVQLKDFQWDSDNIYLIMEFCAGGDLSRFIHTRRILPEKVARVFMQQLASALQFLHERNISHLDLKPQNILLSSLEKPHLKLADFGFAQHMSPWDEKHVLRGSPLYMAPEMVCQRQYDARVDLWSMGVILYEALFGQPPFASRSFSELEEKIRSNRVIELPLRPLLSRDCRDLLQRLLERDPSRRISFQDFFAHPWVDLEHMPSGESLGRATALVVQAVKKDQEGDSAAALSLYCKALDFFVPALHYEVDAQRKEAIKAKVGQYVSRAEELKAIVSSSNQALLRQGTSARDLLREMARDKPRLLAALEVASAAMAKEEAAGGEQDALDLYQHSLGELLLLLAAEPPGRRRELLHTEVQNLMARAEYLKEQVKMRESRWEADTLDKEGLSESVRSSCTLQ
UniProt P10398: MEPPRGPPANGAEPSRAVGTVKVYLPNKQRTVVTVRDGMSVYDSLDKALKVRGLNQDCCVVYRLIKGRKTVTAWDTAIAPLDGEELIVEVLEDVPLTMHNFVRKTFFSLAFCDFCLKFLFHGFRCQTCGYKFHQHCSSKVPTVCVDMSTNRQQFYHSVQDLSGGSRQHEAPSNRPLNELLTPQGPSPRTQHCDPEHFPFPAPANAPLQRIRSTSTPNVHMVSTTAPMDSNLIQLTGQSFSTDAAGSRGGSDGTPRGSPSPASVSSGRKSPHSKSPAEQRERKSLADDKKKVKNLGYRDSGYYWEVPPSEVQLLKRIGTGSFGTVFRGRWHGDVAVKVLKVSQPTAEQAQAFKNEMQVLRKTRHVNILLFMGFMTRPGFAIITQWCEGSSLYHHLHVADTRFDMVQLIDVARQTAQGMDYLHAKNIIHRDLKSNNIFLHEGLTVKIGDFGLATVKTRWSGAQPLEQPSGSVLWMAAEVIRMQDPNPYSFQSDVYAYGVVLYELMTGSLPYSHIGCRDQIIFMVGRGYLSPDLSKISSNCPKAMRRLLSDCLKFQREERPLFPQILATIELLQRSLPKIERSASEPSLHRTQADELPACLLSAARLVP
UniProt O14965: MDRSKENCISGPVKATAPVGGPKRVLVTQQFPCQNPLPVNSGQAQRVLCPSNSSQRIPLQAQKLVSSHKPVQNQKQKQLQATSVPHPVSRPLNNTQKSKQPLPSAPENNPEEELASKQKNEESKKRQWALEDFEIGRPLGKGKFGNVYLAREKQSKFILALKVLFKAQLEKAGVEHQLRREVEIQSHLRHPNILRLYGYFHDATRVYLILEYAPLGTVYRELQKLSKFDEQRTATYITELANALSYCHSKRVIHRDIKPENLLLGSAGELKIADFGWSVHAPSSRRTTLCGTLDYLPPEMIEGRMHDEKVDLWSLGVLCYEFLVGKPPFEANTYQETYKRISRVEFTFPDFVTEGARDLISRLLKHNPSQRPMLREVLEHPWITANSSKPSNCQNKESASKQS
UniProt Q96GD4, whole entry: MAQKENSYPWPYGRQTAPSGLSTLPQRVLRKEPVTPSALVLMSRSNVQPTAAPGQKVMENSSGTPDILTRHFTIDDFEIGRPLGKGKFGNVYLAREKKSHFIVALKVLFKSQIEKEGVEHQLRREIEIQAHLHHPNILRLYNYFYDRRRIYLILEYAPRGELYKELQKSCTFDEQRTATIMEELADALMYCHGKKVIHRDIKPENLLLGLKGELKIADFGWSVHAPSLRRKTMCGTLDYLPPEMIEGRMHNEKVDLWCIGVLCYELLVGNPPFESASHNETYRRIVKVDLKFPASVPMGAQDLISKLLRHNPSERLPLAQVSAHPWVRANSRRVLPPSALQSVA
UniProt Q9UQB9: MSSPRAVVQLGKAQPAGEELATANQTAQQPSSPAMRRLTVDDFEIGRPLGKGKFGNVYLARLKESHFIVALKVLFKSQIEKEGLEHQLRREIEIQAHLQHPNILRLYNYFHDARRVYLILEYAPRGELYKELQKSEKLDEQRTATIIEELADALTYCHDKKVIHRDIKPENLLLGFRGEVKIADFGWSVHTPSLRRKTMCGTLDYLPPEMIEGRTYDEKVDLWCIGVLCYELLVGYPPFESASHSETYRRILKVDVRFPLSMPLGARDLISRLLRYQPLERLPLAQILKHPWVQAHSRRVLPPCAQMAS
UniProt P51813: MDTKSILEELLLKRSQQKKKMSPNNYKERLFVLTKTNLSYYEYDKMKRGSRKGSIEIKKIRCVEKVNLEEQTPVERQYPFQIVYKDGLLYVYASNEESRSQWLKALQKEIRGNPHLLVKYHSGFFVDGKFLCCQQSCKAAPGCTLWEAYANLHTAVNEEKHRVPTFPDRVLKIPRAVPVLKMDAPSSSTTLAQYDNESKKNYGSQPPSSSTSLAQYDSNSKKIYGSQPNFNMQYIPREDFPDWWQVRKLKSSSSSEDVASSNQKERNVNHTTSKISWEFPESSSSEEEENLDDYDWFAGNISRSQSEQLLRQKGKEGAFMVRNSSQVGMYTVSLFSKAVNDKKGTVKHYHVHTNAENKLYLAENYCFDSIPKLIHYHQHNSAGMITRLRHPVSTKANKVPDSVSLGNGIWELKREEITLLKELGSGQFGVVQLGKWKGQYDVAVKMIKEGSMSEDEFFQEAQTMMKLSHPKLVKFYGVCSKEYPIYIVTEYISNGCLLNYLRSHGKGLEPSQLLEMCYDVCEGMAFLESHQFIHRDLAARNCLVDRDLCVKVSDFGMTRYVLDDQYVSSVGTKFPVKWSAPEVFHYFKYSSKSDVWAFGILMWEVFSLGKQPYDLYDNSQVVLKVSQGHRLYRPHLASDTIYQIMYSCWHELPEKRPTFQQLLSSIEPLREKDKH
UniProt P15056, whole entry, looked up: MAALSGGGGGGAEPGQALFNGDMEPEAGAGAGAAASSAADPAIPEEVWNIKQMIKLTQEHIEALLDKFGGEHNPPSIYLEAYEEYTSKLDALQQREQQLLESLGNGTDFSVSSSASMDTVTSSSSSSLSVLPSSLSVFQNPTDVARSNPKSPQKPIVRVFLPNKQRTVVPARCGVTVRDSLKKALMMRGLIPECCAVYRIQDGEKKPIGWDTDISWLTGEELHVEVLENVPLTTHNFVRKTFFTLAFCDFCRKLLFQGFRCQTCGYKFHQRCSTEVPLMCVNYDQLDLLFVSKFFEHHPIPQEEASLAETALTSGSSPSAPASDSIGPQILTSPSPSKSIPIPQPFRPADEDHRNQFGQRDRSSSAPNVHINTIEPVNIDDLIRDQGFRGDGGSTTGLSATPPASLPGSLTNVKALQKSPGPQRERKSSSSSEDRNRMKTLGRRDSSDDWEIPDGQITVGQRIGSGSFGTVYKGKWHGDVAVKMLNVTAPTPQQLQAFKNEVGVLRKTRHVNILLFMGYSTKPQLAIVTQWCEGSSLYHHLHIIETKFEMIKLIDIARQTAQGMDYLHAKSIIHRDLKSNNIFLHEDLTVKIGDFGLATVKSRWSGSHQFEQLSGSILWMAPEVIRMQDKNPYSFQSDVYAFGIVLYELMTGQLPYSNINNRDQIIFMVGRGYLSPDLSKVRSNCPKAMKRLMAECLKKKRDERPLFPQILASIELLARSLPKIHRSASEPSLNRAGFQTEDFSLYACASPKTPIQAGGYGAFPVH
UniProt Q06187: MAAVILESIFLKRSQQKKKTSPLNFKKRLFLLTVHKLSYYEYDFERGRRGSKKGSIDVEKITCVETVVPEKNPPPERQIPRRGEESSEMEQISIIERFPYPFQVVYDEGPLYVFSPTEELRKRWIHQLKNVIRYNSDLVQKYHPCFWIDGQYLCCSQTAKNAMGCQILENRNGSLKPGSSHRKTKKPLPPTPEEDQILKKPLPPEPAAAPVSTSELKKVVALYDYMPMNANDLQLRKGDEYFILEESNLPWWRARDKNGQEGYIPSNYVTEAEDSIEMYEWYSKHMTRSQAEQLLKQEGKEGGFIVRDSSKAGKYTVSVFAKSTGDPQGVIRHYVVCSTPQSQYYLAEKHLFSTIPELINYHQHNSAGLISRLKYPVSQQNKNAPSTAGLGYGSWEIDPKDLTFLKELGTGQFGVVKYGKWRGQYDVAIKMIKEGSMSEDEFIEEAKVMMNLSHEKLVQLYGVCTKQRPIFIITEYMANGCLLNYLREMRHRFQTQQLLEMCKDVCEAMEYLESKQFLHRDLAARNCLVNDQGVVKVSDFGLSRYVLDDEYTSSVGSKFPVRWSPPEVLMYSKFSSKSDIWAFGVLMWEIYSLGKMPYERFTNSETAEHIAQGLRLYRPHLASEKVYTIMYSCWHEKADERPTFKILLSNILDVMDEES

How the values were obtained:
Conditions in all cases: K562; 2-18 h
STK38 = STK38 (UniProt Q15208); assay: kinase-Nluc reporter destabilization hit call (1 = scored as downregulated) (binary); higher = compound decreases kinase abundance
SYK = SYK (UniProt P43405); assay: as above
TEC = TEC (UniProt P42680); assay: as above
TYK2 = TYK2 (UniProt P29597); assay: as above
ULK3 = ULK3 (UniProt Q6PHR2); assay: as above
YES1 = YES1 (UniProt P07947); assay: as above
ZAK = ZAK (UniProt Q9NYL2); assay: as above
ZAP70 = ZAP70 (UniProt P43403); assay: as above
ABL1 = ABL1 (UniProt P00519); assay: number of time points (of 5) at which kinase-Nluc abundance scored as decreased, DMSO-normalised (count); higher = more persistent destabilization
AKT1 = AKT1 (UniProt P31749); assay: as above
ALK = ALK (UniProt Q9UM73); assay: as above
ARAF = ARAF (UniProt P10398); assay: as above
AURKA = AURKA (UniProt O14965); assay: as above
AURKB = AURKB (UniProt Q96GD4); assay: as above
AURKC = AURKC (UniProt Q9UQB9); assay: as above
BLK = BLK (UniProt P51451); assay: as above
BMX = BMX (UniProt P51813); assay: as above
BRAF = BRAF (UniProt P15056); assay: as above
BRAF_V600E = assay: as above
BTK = BTK (UniProt Q06187); assay: as above

| SMILES | kinase-Nluc reporter destabilization hit call (STK38) | kinase-Nluc reporter destabilization hit call (SYK) | kinase-Nluc reporter destabilization hit call (TEC) | kinase-Nluc reporter destabilization hit call (TYK2) | kinase-Nluc reporter destabilization hit call (ULK3) | kinase-Nluc reporter destabilization hit call (YES1) | kinase-Nluc reporter destabilization hit call (ZAK) | kinase-Nluc reporter destabilization hit call (ZAP70) | number of time points (ABL1) | number of time points (AKT1) | number of time points (ALK) | number of time points (ARAF) | number of time points (AURKA) | number of time points (AURKB) | number of time points (AURKC) | number of time points (BLK) | number of time points (BMX) | number of time points (BRAF) | number of time points (BRAF_V600E) | number of time points (BTK) |
| --- | --- | --- | --- | --- | --- | --- | --- | --- | --- | --- | --- | --- | --- | --- | --- | --- | --- | --- | --- | --- |
| CC(C)[C@H](CO)Nc1nc(Nc2ccc(C(=O)O)c(Cl)c2)c2ncn(C(C)C)c2n1 [Purvalanol B] (10 µM) | inactive: 0 | inactive: 0 | inactive: 0 | inactive: 0 | inactive: 0 | inactive: 0 | inactive: 0 | inactive: 0 | 0 | 0 | 0 | 0 | 0 | 0 | 0 | 0 | 0 | 0 | 0 | 0 |
| O=C(O)[C@]1(Cc2cccc(Nc3nccs3)n2)CC[C@@H](Oc2cccc(Cl)c2F)CC1 (2.5 µM) | inactive: 0 | inactive: 0 | inactive: 0 | inactive: 0 | inactive: 0 | inactive: 0 | inactive: 0 | inactive: 0 | 1 | 0 | 1 | 0 | 0 | 0 | 0 | 0 | 2 | 0 | 2 | 0 |
| O=C1c2c(O)cc(O)cc2O[C@H](c2cc(O)c(O)c(O)c2)[C@H]1O [Dihydromyricetin] (10 µM) | inactive: 0 | inactive: 0 | inactive: 0 | inactive: 0 | inactive: 0 | inactive: 0 | inactive: 0 | inactive: 0 | 0 | 0 | 0 | 0 | 0 | 0 | 0 | 0 | 0 | 0 | 0 | 0 |
| COc1ccc(C(=O)c2cn(C(C)C)c3ncnc(N)c23)cc1NC(=O)Nc1ccc(Cl)cc1Cl (10 µM) | inactive: 0 | inactive: 0 | inactive: 0 | inactive: 0 | inactive: 0 | inactive: 0 | inactive: 0 | inactive: 0 | 0 | 1 | 0 | 0 | 1 | 0 | 0 | 1 | 0 | 5 | 0 | 0 |
| COc1ccc(-c2cnc3c(-c4cccc5ncccc45)cnn3c2)cc1 (10 µM) | inactive: 0 | inactive: 0 | inactive: 0 | inactive: 0 | inactive: 0 | inactive: 0 | inactive: 0 | inactive: 0 | 0 | 0 | 0 | 0 | 0 | 0 | 0 | 0 | 0 | 0 | 0 | 0 |
| O=C1NC(=O)C(c2ccccc2[N+](=O)[O-])=C1Nc1ccc(O)c(Cl)c1 (10 µM) | inactive: 0 | inactive: 0 | inactive: 0 | inactive: 0 | inactive: 0 | inactive: 0 | inactive: 0 | inactive: 0 | 0 | 0 | 0 | 0 | 0 | 0 | 0 | 0 | 0 | 0 | 0 | 0 |
| O=C(O)/C=C/c1cc(Br)c(Br)c(Br)c1Br (10 µM) | inactive: 0 | inactive: 0 | inactive: 0 | inactive: 0 | inactive: 0 | inactive: 0 | inactive: 0 | inactive: 0 | 0 | 0 | 0 | 0 | 0 | 0 | 0 | 0 | 0 | 0 | 0 | 0 |
| O=c1cc(-c2ccc(O)cc2)oc2cc(O)c(O)c(O)c12 [Scutellarein] (10 µM) | inactive: 0 | inactive: 0 | inactive: 0 | inactive: 0 | inactive: 0 | inactive: 0 | inactive: 0 | inactive: 0 | 0 | 0 | 0 | 0 | 0 | 0 | 1 | 0 | 0 | 0 | 0 | 0 |
| C[C@@H]1CN(CC(=O)Nc2ccc3c(c2)Cc2cccc(-c4cc(=O)cc(N5CCOCC5)o4)c2S3)C[C@H](C)O1 (2.5 µM) | inactive: 0 | inactive: 0 | inactive: 0 | inactive: 0 | inactive: 0 | inactive: 0 | inactive: 0 | inactive: 0 | 0 | 0 | 0 | 0 | 0 | 0 | 0 | 0 | 0 | 0 | 0 | 0 |
| CCOC(=O)C1=C[C@]2(CC)CCCN3CCc4c(n1c1ccccc41)[C@@H]32 [Vinpocetine] (10 µM) | inactive: 0 | inactive: 0 | inactive: 0 | inactive: 0 | inactive: 0 | inactive: 0 | inactive: 0 | inactive: 0 | 0 | 0 | 0 | 0 | 0 | 0 | 0 | 0 | 0 | 0 | 0 | 0 |
